Results taken from article PMC10130748.
No constants are given. Whether binding was seen depends on the method and setting. Some results given as binding are weak or reduced against the parent protein; the word gives no strength. Where a sequence is shown, tags or fusion partners need not be part of it.

By UniProt entry, the sequences of proteins in these tests, tags left out. Where a name states a change or a piece, a line headed by the entry shows the natural chain unless it says otherwise.
UniProt P08514: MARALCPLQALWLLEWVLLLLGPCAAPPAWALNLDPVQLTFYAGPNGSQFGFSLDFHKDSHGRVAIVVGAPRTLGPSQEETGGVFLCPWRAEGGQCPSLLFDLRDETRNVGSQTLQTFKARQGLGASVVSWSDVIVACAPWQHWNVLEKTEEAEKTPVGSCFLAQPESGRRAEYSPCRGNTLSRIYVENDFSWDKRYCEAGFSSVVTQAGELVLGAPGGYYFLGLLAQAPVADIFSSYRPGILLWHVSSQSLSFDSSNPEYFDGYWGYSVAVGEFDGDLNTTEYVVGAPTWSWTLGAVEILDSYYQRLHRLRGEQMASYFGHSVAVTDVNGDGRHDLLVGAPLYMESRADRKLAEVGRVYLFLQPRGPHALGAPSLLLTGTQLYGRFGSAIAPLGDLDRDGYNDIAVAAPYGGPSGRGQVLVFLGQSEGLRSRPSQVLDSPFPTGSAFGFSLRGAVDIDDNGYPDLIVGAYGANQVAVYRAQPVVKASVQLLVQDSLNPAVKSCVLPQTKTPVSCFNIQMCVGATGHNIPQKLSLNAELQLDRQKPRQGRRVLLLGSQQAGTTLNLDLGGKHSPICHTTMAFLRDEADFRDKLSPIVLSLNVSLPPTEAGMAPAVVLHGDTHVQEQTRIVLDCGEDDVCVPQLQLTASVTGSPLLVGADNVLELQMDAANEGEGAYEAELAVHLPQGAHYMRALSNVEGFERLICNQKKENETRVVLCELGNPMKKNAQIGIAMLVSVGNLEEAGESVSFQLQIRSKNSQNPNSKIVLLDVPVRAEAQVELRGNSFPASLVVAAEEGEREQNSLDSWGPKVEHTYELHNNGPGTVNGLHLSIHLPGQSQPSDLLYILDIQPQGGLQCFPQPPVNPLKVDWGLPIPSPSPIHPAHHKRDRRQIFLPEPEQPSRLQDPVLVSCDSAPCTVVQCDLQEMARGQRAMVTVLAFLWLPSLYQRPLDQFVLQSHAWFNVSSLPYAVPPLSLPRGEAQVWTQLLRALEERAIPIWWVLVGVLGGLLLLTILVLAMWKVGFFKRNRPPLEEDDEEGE
UniProt P05106: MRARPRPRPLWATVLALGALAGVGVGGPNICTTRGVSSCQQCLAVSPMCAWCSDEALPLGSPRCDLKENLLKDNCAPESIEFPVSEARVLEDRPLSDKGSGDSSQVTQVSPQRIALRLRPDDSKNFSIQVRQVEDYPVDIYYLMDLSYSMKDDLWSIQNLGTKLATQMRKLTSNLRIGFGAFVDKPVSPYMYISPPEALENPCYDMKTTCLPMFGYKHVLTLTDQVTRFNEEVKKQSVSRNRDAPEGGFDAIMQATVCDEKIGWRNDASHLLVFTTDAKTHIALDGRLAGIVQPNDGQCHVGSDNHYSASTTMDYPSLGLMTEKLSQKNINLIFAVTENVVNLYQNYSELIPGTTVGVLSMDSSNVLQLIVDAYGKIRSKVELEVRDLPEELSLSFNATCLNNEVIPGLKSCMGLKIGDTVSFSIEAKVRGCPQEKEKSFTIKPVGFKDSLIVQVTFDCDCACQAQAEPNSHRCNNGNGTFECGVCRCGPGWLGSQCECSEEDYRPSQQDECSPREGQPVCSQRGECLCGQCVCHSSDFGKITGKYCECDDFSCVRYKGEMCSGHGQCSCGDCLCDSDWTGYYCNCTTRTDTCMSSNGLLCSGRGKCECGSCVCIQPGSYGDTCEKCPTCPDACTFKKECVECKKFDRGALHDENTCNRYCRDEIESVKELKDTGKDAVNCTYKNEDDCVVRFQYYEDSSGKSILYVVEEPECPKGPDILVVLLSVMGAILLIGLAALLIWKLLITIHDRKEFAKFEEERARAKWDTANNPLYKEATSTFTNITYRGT

Biological target: integrin αIIbβ3 on αIIbβ3-CHO cells (human) (UniProt P08514+P05106)
Test: flow cytometry on cells; CHO, β3-CHO, αIIbβ3-CHO or α4-CHO cells in HEPES-Tyrodes buffer/0.02% BSA, 1 mM Ca2+, incubated with or without the CD62P lectin domain (50 or 100 μg/ml) 30 min on ice, then with FITC-labeled ligand 30 min at room temperature; only the binder purified

Q: For NRLTIGEGQQHHLGGAKQAGDV (FITC-labeled in the flow cytometry assay only) [fibrinogen γ-chain C-terminal residues 390–411 fused to GST (γC390-411)], which binding is on record?
A: The binding was “binds”.
